Source: the supplement of paper PMC10849652
The other results are listed elsewhere or left out.

Protein sequences, listed by entry. Tags and fused reporters are not part of them. Lines headed by an entry give the natural chain unless they say otherwise; changes in a name come on top.
UniProt O43435: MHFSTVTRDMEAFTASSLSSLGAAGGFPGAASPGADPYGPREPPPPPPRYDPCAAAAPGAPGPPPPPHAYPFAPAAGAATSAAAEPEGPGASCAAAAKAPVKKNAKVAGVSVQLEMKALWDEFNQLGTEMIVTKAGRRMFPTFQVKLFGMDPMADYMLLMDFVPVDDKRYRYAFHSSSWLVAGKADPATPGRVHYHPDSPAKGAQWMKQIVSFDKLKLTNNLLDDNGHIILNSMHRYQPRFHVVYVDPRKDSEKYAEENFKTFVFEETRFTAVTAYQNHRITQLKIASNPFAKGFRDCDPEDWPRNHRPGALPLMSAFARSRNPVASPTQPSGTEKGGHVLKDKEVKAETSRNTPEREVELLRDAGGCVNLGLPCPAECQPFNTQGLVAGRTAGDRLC
UniProt Q9UK61: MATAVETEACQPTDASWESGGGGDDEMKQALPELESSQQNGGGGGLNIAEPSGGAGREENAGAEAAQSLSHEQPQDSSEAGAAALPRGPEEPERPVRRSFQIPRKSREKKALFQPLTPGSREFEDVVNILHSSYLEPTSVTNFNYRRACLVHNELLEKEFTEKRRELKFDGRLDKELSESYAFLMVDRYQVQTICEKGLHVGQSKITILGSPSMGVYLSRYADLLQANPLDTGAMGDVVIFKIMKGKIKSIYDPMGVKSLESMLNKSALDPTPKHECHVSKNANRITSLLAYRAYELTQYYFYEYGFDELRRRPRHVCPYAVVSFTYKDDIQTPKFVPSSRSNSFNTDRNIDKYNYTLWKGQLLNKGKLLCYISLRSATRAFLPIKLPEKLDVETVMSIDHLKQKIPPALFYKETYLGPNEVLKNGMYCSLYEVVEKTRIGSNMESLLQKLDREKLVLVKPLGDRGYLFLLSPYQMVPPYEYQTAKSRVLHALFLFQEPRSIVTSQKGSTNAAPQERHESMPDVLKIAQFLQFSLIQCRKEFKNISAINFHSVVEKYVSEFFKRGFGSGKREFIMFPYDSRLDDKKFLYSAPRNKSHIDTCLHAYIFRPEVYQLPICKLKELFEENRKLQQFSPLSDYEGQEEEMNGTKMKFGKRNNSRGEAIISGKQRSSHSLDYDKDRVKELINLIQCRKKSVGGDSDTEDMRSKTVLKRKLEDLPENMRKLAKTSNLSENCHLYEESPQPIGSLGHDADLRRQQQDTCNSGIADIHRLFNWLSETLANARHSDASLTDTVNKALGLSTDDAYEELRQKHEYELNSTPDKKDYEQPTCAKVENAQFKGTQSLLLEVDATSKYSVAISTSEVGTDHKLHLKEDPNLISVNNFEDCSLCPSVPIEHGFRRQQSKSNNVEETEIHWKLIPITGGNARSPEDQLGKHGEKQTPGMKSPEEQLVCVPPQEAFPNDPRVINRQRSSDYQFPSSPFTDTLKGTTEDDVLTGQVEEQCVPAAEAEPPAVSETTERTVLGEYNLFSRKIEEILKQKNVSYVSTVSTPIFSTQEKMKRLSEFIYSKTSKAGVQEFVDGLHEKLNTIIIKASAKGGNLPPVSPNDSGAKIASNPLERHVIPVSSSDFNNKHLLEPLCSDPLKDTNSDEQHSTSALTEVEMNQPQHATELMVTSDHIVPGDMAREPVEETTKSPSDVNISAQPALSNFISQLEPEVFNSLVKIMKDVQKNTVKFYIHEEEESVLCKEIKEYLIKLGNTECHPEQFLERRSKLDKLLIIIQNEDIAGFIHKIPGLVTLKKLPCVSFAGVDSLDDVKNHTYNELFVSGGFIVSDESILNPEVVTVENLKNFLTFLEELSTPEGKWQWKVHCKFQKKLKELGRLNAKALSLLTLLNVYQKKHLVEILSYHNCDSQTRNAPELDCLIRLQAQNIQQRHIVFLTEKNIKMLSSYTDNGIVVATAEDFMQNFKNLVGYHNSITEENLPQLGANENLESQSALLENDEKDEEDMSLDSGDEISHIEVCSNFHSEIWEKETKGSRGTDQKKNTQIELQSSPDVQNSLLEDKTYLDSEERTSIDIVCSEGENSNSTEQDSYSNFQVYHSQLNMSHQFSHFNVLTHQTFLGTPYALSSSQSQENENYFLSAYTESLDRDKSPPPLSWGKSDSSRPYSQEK
UniProt Q8N4U5: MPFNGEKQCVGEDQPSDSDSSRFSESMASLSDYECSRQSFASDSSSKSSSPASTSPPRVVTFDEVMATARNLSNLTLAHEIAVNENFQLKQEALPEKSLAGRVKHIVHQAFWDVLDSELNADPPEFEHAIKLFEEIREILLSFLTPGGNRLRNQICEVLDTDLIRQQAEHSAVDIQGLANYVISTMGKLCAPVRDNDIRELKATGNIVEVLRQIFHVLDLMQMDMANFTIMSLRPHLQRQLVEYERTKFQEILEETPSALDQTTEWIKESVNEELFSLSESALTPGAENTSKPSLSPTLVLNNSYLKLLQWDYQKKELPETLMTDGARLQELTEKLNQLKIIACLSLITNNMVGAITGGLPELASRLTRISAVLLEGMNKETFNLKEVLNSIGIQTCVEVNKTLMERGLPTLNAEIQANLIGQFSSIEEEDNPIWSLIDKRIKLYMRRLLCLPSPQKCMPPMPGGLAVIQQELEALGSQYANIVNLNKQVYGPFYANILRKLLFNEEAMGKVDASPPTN
UniProt Q13569: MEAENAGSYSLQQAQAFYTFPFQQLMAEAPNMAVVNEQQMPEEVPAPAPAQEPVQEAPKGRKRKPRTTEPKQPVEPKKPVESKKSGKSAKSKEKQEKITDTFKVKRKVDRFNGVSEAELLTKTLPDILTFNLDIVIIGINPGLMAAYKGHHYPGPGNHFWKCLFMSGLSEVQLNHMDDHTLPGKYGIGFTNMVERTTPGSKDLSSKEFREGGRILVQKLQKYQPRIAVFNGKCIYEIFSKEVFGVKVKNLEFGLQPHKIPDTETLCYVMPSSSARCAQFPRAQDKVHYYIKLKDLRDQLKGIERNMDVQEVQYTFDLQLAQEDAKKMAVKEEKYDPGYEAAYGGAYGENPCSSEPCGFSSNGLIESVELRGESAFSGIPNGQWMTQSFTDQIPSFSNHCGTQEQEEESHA
UniProt P42680: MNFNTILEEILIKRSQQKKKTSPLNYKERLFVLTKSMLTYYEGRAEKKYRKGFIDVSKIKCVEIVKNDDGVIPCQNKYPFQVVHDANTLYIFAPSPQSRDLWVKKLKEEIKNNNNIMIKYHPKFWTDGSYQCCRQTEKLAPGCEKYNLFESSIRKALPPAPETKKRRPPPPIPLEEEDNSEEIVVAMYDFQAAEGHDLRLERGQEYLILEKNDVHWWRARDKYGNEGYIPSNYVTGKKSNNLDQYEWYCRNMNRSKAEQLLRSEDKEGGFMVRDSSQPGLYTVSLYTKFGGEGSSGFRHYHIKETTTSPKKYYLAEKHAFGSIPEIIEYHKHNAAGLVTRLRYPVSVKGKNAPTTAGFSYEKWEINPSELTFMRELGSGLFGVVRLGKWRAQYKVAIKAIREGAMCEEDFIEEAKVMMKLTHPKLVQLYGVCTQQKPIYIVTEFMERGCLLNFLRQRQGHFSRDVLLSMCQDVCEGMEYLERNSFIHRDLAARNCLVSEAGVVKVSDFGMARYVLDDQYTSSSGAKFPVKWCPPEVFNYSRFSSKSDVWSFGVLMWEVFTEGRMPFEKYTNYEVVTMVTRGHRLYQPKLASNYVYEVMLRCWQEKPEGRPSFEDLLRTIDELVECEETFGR
UniProt P28347, whole entry, looked up: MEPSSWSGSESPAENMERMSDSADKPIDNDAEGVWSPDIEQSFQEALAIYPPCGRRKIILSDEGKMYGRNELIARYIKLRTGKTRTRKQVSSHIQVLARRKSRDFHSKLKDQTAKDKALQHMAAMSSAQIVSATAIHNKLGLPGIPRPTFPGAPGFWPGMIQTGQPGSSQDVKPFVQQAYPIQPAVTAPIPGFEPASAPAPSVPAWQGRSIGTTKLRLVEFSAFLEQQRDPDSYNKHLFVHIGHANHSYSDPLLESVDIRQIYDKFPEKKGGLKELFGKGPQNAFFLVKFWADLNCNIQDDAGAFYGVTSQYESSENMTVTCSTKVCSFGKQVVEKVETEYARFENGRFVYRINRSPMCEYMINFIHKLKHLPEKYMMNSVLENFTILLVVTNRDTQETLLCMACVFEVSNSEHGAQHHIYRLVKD
UniProt Q8TEA7: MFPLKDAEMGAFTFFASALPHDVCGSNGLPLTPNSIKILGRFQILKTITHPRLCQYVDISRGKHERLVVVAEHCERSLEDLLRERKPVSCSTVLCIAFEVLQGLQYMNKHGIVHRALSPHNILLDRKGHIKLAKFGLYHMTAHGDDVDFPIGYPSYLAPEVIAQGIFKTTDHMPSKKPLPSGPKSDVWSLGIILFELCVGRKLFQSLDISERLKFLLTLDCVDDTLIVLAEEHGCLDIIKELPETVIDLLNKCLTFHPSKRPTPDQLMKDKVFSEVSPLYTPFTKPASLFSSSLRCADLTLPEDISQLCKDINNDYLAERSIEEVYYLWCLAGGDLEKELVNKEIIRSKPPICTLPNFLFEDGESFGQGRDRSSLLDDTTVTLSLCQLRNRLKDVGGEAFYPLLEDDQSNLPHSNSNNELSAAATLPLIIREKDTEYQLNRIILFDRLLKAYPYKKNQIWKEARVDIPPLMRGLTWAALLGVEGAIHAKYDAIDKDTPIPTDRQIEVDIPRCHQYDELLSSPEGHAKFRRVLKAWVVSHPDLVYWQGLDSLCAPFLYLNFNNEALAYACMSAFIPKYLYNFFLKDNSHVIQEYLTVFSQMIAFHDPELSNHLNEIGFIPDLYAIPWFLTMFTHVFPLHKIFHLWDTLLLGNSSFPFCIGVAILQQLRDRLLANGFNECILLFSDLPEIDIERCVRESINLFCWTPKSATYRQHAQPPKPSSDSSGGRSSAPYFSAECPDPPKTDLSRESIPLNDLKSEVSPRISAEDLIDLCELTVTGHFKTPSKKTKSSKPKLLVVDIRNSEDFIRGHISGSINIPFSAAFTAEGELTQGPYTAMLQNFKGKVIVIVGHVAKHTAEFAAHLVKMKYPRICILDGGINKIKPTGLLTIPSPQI
UniProt Q96MN5: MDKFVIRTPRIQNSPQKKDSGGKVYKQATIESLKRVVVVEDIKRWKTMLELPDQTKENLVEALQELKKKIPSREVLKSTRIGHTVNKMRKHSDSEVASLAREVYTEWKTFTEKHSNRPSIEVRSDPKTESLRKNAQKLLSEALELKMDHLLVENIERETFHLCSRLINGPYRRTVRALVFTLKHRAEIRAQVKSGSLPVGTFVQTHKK
UniProt Q9UI15: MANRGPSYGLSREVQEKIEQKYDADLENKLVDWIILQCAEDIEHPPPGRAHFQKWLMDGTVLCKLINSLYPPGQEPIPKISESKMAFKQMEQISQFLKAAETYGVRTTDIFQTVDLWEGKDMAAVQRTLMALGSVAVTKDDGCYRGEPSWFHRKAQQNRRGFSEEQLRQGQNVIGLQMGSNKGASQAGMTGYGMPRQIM
UniProt P10646, whole entry, looked up: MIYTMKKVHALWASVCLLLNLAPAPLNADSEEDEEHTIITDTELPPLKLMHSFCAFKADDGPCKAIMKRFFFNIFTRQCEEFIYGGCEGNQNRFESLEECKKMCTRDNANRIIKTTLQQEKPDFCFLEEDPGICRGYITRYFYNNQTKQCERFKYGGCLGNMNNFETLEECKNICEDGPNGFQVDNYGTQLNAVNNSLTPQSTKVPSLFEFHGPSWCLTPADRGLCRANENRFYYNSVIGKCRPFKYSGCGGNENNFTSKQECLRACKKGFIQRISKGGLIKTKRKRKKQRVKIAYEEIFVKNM
UniProt Q14188: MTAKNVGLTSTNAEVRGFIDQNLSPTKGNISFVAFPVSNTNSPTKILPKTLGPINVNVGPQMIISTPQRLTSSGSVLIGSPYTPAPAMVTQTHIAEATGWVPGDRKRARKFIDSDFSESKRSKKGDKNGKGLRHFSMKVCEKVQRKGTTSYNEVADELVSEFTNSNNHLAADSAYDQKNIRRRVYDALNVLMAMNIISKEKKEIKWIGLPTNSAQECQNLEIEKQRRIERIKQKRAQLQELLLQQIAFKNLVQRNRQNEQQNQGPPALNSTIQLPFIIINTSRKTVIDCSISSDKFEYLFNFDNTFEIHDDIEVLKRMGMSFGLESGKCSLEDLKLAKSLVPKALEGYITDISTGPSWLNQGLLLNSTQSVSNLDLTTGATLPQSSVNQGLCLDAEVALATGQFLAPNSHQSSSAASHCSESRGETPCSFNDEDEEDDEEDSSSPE
UniProt Q8IYN2: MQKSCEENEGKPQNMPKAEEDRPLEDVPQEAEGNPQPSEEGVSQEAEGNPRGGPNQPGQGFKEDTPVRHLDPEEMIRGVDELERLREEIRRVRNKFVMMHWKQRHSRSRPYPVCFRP
UniProt Q6P1N9: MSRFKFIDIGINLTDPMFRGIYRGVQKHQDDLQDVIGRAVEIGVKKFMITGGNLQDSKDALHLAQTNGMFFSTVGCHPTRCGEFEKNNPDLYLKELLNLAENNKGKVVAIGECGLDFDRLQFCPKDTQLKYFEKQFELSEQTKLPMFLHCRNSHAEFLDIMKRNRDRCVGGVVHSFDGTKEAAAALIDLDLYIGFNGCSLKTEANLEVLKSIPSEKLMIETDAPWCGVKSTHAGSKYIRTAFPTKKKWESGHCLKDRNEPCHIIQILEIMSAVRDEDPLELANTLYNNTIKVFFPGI

Legend:
Assay in all cases: log2 fold change, soluble protein after heating vs DMSO (PISA); higher = thermal stabilisation; K562 lysate, 10 uM; active = over 0.2 and 3.5 SD of the protein, either way, in both replicates (recomputed)
vemurafenib = compound: CCCS(=O)(=O)Nc1ccc(F)c(C(=O)c2c[nH]c3ncc(-c4ccc(Cl)cc4)cc23)c1F [vemurafenib]
How it was run: (§1)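 K562 pellets were dounce-homogenised in PBS pH 7.4 containing 1 mM MgCl2, and the crude extract, at 1 mg/mL protein, was exposed to 10 μM compound for 30 min. Aliquots were heated for 3 min across 48°C-58°C, pooled, brought to 0.5% NP-40 at 4°C and spun at 21,000xg for 90 min, with the supernatant taken as soluble protein. TMTpro 16plex LC-MS/MS with equalised channel sums quantified that protein. Values are log-two fold changes in thermal stability relative to solvent controls, taken from duplicates.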

[1] = compound: CCCS(=O)(=O)Nc1ccc(F)c(C(=O)c2c[nH]c3ncc(Cl)cc23)c1F
How it was run: as §1

barasertib = compound: CCN(CCCOc1ccc2c(Nc3cc(CC(=O)Nc4cccc(F)c4)[nH]n3)ncnc2c1)CCOP(=O)(O)O [barasertib]
How it was run: as §1

[2] = compound: CC[C@@H]1C(=O)N(C)c2cnc(Nc3ccc(C(=O)NC4CCN(C)CC4)cc3OC)nc2N1C1CCCC1
How it was run: as §1

volasertib = compound: CC[C@@H]1C(=O)N(C)c2cnc(Nc3ccc(C(=O)N[C@H]4CC[C@H](N5CCN(CC6CC6)CC5)CC4)cc3OC)nc2N1C(C)C [volasertib]
How it was run: as §1

[3] = compound: CCn1c(C(=O)N(C2CC2)C2CC2)cc2c3c(ncn3C)c(Nc3cc(C)n(C)n3)nc21
How it was run: as §1

[4] = compound: CCn1cc(-c2ccnc3[nH]c(-c4cccc(CN(C)C)c4)cc23)c(-c2ccc(NC(=O)N(C)C)cc2)n1
How it was run: as §1

[5] = compound: CN1CCC(CNc2ccc3ncc(-c4cccc(OC(F)(F)F)c4)n3n2)CC1
How it was run: as §1

saracatinib = compound: CN1CCN(CCOc2cc(OC3CCOCC3)c3c(Nc4c(Cl)ccc5c4OCO5)ncnc3c2)CC1 [saracatinib]
How it was run: as §1

sotrastaurin = compound: CN1CCN(c2nc(C3=C(c4c[nH]c5ccccc45)C(=O)NC3=O)c3ccccc3n2)CC1 [sotrastaurin]
How it was run: as §1

alvocidib = compound: CN1CC[C@H](c2c(O)cc(O)c3c(=O)cc(-c4ccccc4Cl)oc23)[C@H](O)C1 [alvocidib]
How it was run: as §1

Tubastatin A = compound: CN1CCc2c(c3ccccc3n2Cc2ccc(C(=O)NO)cc2)C1 [Tubastatin A]
How it was run: as §1

[6] = compound: CNC(=O)C1=CC=CC=C1NC2=NC(=NC=C2Cl)NC3=C(C=C(C=C3)N4CCOCC4)OC
How it was run: as §1

defactinib = compound: CNC(=O)c1ccc(Nc2ncc(C(F)(F)F)c(NCc3nccnc3N(C)S(C)(=O)=O)n2)cc1 [defactinib]
How it was run: as §1

[7] = compound: CNc1nc(-c2ccc3c(N)n[nH]c3c2)cc(N2C[C@@H](C(=O)NC3CCCCC3)CC[C@H]2C)n1
How it was run: as §1

encorafenib = compound: COC(=O)N[C@@H](C)CNc1nccc(-c2cn(C(C)C)nc2-c2cc(Cl)cc(NS(C)(=O)=O)c2F)n1 [encorafenib]
How it was run: as §1

[8] = compound: COC(=O)[C@H](CCSC)NC(=O)C1=C(C=C(C=C1)NC[C@H](CS)N)C2=CC=CC=C2
How it was run: as §1

alisertib = compound: COc1cc(Nc2ncc3c(n2)-c2ccc(Cl)cc2C(c2c(F)cccc2OC)=NC3)ccc1C(=O)O [alisertib]
How it was run: as §1

[9] = compound: COc1cc2nc(-c3cc(F)ccc3O)nc(N[C@@H]3CNC[C@H]3C(C)(C)O)c2cc1OC
How it was run: as §1

gefitinib = compound: COc1cc2ncnc(Nc3ccc(F)c(Cl)c3)c2cc1OCCCN1CCOCC1 [gefitinib]
How it was run: as §1

Measured: log2 fold change

TEPSIN, A0A1B0GV70
inactive: vemurafenib -0.108 | [1] 0.045 | barasertib -0.021 | [2] 0.072 | volasertib -0.234 | [3] 0.006 | [4] -0.04 | [5] -0.002 | saracatinib -0.13 | sotrastaurin -0.048 | alvocidib -0.01 | Tubastatin A -0.123 | [6] 0.171 | defactinib 0.019 | [7] -0.112 | encorafenib -0.054 | [8] -0.14 | alisertib 0.012 | [9] -0.058 | gefitinib 0.094

TCEAL9 (UniProt Q9UHQ7)
inactive: vemurafenib 0.165 | sotrastaurin 0.06 | defactinib 0.146 | alisertib 0.047 | gefitinib -0.131

TCEAL1 isoform 2 (UniProt Q15170)
inactive: vemurafenib -0.002 | [1] -0.013 | barasertib 0.156 | volasertib 0.057 | defactinib 0.025 | [9] 0.119

TBX1 isoform 3 (UniProt O43435)
inactive: vemurafenib 0.011 | barasertib -0.018 | [2] 0.141 | [4] -0.277 | [5] 0.158 | alvocidib -0.196 | defactinib -0.074 | encorafenib 0.026 | [8] -0.135

TASOR (UniProt Q9UK61)
inactive: vemurafenib 0 | [2] 0.047 | saracatinib 0.012 | sotrastaurin 0.201 | [6] 0.254 | defactinib -0.006 | [7] 0.058 | encorafenib 0.031 | [8] 0

TCP11L2 (UniProt Q8N4U5)
inactive: vemurafenib -0.164 | [2] 0.055 | [3] 0.034 | [4] -0.14 | [5] 0.131 | alvocidib -0.006 | Tubastatin A -0.169 | [6] -0.112 | defactinib -0.015 | encorafenib 0.069 | [8] 0.122

TDG (UniProt Q13569)
inactive: vemurafenib 0.005 | barasertib 0.012 | [2] 0.132 | [3] 0.143 | [4] -0.02 | [5] -0.014 | saracatinib 0.002 | sotrastaurin -0.015 | alvocidib -0.041 | Tubastatin A -0.183 | defactinib 0.04 | [7] -0.059 | encorafenib -0.329 | [8] -0.041 | alisertib 0.007 | gefitinib -0.057

TEC (UniProt P42680)
inactive: vemurafenib -0.081 | [1] -0.119 | [2] -0.054 | volasertib 0.14 | defactinib 0.07 | encorafenib -0.044 | [8] -0.036 | alisertib -0.086 | [9] -0.028 | gefitinib -0.027

TDRD15 (UniProt B5MCY1)
inactive: vemurafenib 0.143 | [1] 0.06 | [2] 0.055 | volasertib -0.182 | [3] -0.044 | saracatinib -0.011 | sotrastaurin -0.034 | Tubastatin A -0.06 | [6] 0.016 | defactinib -0.063 | [7] 0.171 | encorafenib 0.171 | [8] 0.003 | alisertib -0.064 | [9] -0.082 | gefitinib -0.075

TEAD1 (UniProt P28347)
inactive: vemurafenib 0.057 | barasertib 0.06 | [2] 0.099 | [4] -0.143 | [5] 0.074 | saracatinib 0.391 | alvocidib 0.092 | [6] 0.001 | defactinib -0.072 | [7] 0.27 | encorafenib 0 | [8] -0.151

TCF25 (UniProt Q9BQ70)
inactive: vemurafenib 0.069 | barasertib 0.028 | [2] 0.129 | [3] 0.045 | [4] -0.037 | [5] -0.057 | saracatinib -0.007 | sotrastaurin 0.01 | alvocidib 0.01 | Tubastatin A 0.01 | [6] 0 | defactinib 0 | [7] -0.026 | encorafenib 0.05 | [8] -0.004 | alisertib 0.025 | gefitinib 0.114

TBCK (UniProt Q8TEA7)
inactive: [1] -0.042 | barasertib 0.005 | [2] 0.013 | volasertib -0.107 | [3] -0.199 | [4] 0.518 | [5] 0.051 | saracatinib -0.097 | sotrastaurin 0.048 | alvocidib 0.017 | Tubastatin A 0.014 | [6] -0.041 | [7] 0.034 | encorafenib 0.023 | [8] 0.043 | alisertib -0.067 | [9] 0.012 | gefitinib 0.004

TCEANC2 (UniProt Q96MN5)
inactive: vemurafenib 0.11 | barasertib 0.036 | [2] 0.004 | [3] -0.05 | saracatinib -0.02 | Tubastatin A -0.004 | [6] 0.023 | defactinib -0.029 | [7] 0.029 | encorafenib 0.105 | [8] 0.031 | alisertib -0.17 | gefitinib -0.293

TAGLN3 (UniProt Q9UI15)
inactive: vemurafenib 0.024 | [1] 0.015 | [2] 0.037 | volasertib -0.097 | [4] -0.327 | [5] 0.075 | alvocidib -0.14 | [6] 0.055 | defactinib -0.111 | encorafenib -0.075 | [8] -0.044 | [9] -0.055

TCF3 (UniProt X6REB3)
inactive: vemurafenib 0.075 | [4] 0 | [5] 0.128 | alvocidib -0.168 | defactinib -0.149

TFPI isoform 2 (UniProt P10646)
inactive: vemurafenib 0 | sotrastaurin -0.011 | defactinib -0.109

TBC1D25 (UniProt Q3MII6)
inactive: vemurafenib 0.04 | [1] -0.019 | [2] -0.079 | volasertib 0.187 | [3] 0.009 | [4] 0.199 | [5] -0.005 | saracatinib -0.011 | sotrastaurin 0.241 | alvocidib 0.036 | Tubastatin A 0.028 | [6] -0.014 | defactinib 0.025 | [7] 0.003 | encorafenib 0.091 | [8] 0.038 | alisertib -0.021 | [9] -0.032 | gefitinib 0.09

TASP1 (UniProt Q9H6P5)
inactive: [1] 0.028 | barasertib 0.13 | [2] -0.082 | volasertib -0.02 | [3] -0.047 | saracatinib -0.082 | sotrastaurin 0.02 | Tubastatin A 0.087 | [6] -0.119 | [7] 0.112 | encorafenib -0.035 | [8] 0.103 | alisertib -0.151 | [9] -0.048 | gefitinib -0.046

TFDP2 (UniProt Q14188)
inactive: vemurafenib -0.319 | [1] -0.063 | barasertib 0.128 | volasertib -0.032 | [3] -0.057 | saracatinib 0.141 | sotrastaurin 0.034 | Tubastatin A -0.218 | [6] 0.093 | defactinib 0.132 | [7] -0.01 | alisertib 0.111 | [9] 0.163 | gefitinib -0.047

TCEAL8 (UniProt Q8IYN2)
inactive: vemurafenib 0.044 | [2] 0.073 | saracatinib -0.02 | sotrastaurin -0.018 | defactinib 0.028 | [7] 0.111 | encorafenib -0.096 | [8] -0.072

TCHP (UniProt Q9BT92)
inactive: vemurafenib 0.127 | barasertib 0.102 | [2] 0.014 | [3] 0.075 | [4] -0.04 | [5] 0.001 | saracatinib 0.108 | sotrastaurin 0.007 | alvocidib -0.14 | Tubastatin A -0.064 | [6] 0.084 | defactinib -0.086 | [7] -0.01 | encorafenib -0.003 | [8] 0.028 | alisertib -0.174 | gefitinib -0.014

TATDN1 isoform 2 (UniProt Q6P1N9)
inactive: vemurafenib 0.186 | [1] -0.134 | barasertib -0.032 | volasertib 0.074 | [3] -0.165 | sotrastaurin 0.022 | Tubastatin A 0.168 | [6] 0 | defactinib -0.088 | [9] 0.021

TCEAL4 isoform 2 (UniProt Q96EI5)
inactive: vemurafenib 0.006 | [1] -0.014 | barasertib -0.13 | [2] 0.141 | volasertib 0.01 | [4] -0.189 | [5] 0.014 | saracatinib 0.057 | sotrastaurin -0.023 | alvocidib -0.108 | defactinib 0 | [7] -0.027 | encorafenib 0.107 | [8] -0.024 | [9] 0.044

Copied from the listing (2 entries):
TCEAL1 isoform 2 (UniProt Q15170)
inactive: vemurafenib -0.002 | [1] -0.013 | barasertib 0.156 | volasertib 0.057 | defactinib 0.025 | [9] 0.119

TBX1 isoform 3 (UniProt O43435)
inactive: vemurafenib 0.011 | barasertib -0.018 | [2] 0.141 | [4] -0.277 | [5] 0.158 | alvocidib -0.196 | defactinib -0.074 | encorafenib 0.026 | [8] -0.135
